The record followed here is article PMC12682277.

No constants are given. Whether binding was seen depends on the method and setting. Binding seen in cells or lysates may run through a third protein. Some results given as binding are weak or reduced against the parent protein; the word gives no strength.

For this experiment, the target named is T1, RAG1 (human (endogenous in U87 and Nalm6)) (UniProt P15918).
T1 sequence: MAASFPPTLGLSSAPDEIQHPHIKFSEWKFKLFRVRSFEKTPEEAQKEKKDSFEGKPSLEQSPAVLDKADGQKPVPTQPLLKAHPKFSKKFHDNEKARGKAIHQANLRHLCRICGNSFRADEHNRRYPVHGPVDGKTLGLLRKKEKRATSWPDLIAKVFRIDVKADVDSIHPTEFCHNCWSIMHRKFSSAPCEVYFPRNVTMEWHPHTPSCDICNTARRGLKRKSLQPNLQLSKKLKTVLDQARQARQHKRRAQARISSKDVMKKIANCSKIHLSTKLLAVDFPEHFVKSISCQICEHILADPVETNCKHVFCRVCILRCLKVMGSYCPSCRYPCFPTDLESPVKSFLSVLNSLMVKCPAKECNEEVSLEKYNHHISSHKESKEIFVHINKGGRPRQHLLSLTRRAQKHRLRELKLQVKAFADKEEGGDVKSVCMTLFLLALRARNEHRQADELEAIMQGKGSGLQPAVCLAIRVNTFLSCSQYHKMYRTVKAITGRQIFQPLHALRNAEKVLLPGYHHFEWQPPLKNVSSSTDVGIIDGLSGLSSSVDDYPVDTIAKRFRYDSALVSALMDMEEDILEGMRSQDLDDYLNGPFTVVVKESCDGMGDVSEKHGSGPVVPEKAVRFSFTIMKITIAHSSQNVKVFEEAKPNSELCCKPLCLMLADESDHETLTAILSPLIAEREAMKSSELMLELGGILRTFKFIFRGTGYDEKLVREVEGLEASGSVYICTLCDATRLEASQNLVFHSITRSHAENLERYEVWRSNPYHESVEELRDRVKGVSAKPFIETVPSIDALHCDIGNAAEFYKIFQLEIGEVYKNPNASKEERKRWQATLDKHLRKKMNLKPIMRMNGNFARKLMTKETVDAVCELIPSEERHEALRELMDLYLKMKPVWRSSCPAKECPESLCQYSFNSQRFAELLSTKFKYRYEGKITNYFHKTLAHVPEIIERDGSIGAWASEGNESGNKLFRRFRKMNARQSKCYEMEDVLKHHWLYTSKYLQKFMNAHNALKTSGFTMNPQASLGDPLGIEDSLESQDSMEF
Kind of experiment: pull-down; streptavidin beads with 5'-biotinylated double-stranded canonical 12RSS DNA (AKN1/2, 4 ug) incubated with 30 ug cell-free extract of U87 or Nalm6 in PBSI buffer, 2 h at 4 C; bound proteins eluted in Laemmli buffer and western blotted for RAG1 and RAG2; the bait is DNA, not a protein. A general note: Immunoblotting shows a protein as a band on a membrane.

B1: RAG2 (protein, UniProt P55895 1-527)
chain: MSLQMVTVSNNIALIQPGFSLMNFDGQVFFFGQKGWPKRSCPTGVFHLDVKHNHVKLKPTIFSKDSCYLPPLRYPATCTFKGSLESEKHQYIIHGGKTPNNEVSDKIYVMSIVCKNNKKVTFRCTEKDLVGDVPEARYGHSINVVYSRGKSMGVLFGGRSYMPSTHRTTEKWNSVADCLPCVFLVDFEFGCATSYILPELQDGLSFHVSIAKNDTIYILGGHSLANNIRPANLYRIRVDLPLGSPAVNCTVLPGGISVSSAILTQTNNDEFVIVGGYQLENQKRMICNIISLEDNKIEIREMETPDWTPDIKHSKIWFGSNMGNGTVFLGIPGDNKQVVSEGFYFYMLKCAEDDTNEEQTTFTNSQTSTEDPGDSTPFEDSEEFCFSAEANSFDGDDEFDTYNEDDEEDESETGYWITCCPTCDVDINTWVPFYSTELNKPAMIYCSHGDGHWVHAQCMDLAERTLIHLSAGSNKYYCNEHVEIARALHTPQRVLPLKKPPMKSLRKKGSGKILTPAKKSFLRRLFD
As for B1, the binding entry is “binds”.
